No constants are given. Whether binding was seen depends on the method and setting. In cells and extracts the contact can be indirect. Some binding calls cover weakened binding; strength is not graded here. Tags and fused reporters may be left off the sequences shown.

Sequences of proteins named here, by UniProt entry; tags and fusion partners are left off.
UniProt Q6L4F8: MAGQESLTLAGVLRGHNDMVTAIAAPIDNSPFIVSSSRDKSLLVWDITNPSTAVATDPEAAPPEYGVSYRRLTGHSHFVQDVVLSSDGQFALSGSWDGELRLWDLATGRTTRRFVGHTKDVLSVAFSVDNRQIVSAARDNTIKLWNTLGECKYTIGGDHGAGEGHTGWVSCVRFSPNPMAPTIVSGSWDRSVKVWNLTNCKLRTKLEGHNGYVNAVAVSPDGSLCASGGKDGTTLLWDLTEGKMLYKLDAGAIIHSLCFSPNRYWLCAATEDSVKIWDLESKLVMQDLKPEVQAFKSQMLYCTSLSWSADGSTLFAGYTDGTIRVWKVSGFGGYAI

This test has as its target T1, Stay-green protein (OsSGR), cYFP fusion (rice (Oryza sativa L.)) (UniProt Q652K1).
T1 sequence: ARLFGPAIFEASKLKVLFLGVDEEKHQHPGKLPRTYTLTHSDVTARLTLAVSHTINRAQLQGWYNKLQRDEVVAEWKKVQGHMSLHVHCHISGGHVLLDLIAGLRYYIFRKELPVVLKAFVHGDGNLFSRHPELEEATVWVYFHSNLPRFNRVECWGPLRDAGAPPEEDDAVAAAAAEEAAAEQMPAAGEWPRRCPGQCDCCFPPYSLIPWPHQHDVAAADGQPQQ
Kind of test: split reporter; BiFC in onion epidermal cells; nEYFP and cEYFP fusion plasmids mixed 1:1 and co-bombarded; 16-24 h at 22 °C in the dark in MS liquid media; confocal microscopy; also after 200 mM NaCl for 30 min.

Turning to “Receptor for Activated C Kinase1B (OsRACK1B), nYFP fusion (from UniProt Q6L4F8 1-336)”, the binding result is given as “binds”.

Values taken from PMC10303231.
